Experimental data published in publication PMC4546648.
Results are given in words; binding and its absence hold for the method and conditions named. In cells and extracts the contact can be indirect. Binding can be weak; no strength is given. For some of these results: Tags and fused reporters may be left off the sequences shown.

Amino acid sequences for entries named in this document (tags omitted). A change or cut given only in a name is not applied to a line headed by its entry.
UniProt P16885: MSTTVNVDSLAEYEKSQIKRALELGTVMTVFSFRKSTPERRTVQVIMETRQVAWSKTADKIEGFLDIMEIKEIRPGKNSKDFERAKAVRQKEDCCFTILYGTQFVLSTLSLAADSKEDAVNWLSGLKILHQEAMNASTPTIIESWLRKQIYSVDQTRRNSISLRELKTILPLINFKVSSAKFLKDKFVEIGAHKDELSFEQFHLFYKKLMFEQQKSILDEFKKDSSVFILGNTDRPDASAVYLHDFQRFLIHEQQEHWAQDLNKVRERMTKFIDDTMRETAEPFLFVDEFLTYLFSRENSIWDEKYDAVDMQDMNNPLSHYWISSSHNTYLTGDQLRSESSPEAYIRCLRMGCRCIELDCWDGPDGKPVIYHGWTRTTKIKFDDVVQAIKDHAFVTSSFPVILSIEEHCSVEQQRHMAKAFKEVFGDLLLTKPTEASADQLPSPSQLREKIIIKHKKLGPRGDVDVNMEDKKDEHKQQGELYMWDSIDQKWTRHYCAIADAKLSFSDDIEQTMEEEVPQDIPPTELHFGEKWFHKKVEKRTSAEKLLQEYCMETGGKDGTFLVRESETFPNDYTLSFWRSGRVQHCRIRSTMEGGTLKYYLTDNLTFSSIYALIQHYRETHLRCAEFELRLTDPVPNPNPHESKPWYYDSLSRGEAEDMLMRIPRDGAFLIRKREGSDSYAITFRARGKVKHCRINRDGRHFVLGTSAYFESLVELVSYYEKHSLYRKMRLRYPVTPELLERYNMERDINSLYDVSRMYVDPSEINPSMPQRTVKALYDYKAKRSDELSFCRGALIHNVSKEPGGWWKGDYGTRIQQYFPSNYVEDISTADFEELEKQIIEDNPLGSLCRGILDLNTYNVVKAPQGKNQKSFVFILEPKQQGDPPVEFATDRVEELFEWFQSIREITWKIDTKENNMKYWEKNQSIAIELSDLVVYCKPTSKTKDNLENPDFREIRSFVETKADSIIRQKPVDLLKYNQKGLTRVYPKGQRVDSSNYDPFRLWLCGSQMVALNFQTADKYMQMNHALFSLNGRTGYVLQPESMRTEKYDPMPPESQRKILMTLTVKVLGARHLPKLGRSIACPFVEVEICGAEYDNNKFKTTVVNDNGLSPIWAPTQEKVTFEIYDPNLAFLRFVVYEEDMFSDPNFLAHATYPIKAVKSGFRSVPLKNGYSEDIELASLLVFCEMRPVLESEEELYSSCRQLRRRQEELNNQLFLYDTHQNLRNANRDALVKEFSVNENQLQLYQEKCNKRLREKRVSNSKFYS

Key:
S-tagged PLCγ1 wt = biological target: T1, S-tagged PLCγ1 wt (UniProt P19174); experiment: co-IP; HEK293T co-transfected; lysed in IP buffer (150 mM NaCl, 25 mM tris HCl pH 7.6, 1 mM EDTA, 1% glycerol, 0.2% NP-40); S-tagged construct captured on S protein agarose beads overnight at 4°C; western blot
T1 sequence: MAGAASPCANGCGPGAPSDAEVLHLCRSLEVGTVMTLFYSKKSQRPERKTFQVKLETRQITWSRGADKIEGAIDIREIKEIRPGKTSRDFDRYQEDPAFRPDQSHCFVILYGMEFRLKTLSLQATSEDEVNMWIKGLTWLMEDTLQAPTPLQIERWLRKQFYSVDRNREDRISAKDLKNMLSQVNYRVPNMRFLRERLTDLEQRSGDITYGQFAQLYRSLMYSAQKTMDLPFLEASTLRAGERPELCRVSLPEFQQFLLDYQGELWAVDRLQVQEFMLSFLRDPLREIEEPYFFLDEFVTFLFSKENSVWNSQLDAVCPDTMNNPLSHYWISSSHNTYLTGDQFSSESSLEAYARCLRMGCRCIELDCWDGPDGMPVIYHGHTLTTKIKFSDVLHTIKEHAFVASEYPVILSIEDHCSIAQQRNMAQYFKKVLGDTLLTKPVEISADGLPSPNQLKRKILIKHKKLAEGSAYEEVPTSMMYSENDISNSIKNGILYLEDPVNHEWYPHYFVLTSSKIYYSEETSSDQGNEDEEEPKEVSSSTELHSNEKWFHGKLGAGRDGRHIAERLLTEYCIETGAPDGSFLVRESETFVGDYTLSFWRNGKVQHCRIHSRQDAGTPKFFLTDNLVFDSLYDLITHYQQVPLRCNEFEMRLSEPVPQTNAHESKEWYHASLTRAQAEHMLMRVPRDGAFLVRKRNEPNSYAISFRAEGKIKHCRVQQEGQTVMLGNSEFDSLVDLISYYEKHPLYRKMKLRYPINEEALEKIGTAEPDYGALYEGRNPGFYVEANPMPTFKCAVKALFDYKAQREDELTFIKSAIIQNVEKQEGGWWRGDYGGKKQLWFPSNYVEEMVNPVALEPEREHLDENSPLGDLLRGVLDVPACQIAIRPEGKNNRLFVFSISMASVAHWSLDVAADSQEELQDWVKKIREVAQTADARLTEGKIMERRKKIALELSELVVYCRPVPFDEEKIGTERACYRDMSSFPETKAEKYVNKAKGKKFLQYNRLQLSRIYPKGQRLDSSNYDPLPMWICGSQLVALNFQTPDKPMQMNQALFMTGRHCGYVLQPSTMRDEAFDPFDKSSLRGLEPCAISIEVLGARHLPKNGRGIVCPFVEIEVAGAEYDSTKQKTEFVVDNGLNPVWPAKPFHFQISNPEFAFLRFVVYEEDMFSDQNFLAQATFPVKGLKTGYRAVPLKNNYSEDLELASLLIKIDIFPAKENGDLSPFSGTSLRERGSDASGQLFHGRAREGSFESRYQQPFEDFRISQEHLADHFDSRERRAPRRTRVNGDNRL

[1] = biological target: isolated PLCγ2 cSH2 domain wt, S-tagged (UniProt P16885); experiment: as above
[2] = biological target: GST-K15P cytoplasmic domain (aa 347-489) (Kaposi's sarcoma herpesvirus (KSHV, HHV-8)) (UniProt Q9QR69); experiment: pull-down; GST-K15P cytoplasmic domain on glutathione beads incubated overnight at 4°C with pre-cleared lysate of HEK293T transfected with PLCγ2 constructs; western blot; only the target purified

Substance | binding [1] | other results
K15M wt | – | binding (S-tagged PLCγ1 wt): binds
K15P Y481F (from UniProt Q9QR69 27-489) | no binding | –
K15P wt (from UniProt Q9QR69 27-489) | binds | –
isolated PLCγ2 cSH2 domain wt, S-tagged (from UniProt P16885) (domain or fragment) | – | binding [2]: binds
